Source: PubChem BioAssay AID1117285 (Broad Institute, 2014)
Inconclusive results, whose numbers are uncertain, are shown with a selection of clear calls. Calls of active or inactive are those of the source.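 How the source made its calls: active means called active in every replicate test, with a falling signal and AC50 within twice the top valid dose; inconclusive means replicate tests disagree in their calls; inactive means inactive in every replicate test, including a rising signal.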

Sequences of proteins named here, by UniProt entry; tags and fusion partners are left off.
UniProt Q8C129, whole entry, looked up: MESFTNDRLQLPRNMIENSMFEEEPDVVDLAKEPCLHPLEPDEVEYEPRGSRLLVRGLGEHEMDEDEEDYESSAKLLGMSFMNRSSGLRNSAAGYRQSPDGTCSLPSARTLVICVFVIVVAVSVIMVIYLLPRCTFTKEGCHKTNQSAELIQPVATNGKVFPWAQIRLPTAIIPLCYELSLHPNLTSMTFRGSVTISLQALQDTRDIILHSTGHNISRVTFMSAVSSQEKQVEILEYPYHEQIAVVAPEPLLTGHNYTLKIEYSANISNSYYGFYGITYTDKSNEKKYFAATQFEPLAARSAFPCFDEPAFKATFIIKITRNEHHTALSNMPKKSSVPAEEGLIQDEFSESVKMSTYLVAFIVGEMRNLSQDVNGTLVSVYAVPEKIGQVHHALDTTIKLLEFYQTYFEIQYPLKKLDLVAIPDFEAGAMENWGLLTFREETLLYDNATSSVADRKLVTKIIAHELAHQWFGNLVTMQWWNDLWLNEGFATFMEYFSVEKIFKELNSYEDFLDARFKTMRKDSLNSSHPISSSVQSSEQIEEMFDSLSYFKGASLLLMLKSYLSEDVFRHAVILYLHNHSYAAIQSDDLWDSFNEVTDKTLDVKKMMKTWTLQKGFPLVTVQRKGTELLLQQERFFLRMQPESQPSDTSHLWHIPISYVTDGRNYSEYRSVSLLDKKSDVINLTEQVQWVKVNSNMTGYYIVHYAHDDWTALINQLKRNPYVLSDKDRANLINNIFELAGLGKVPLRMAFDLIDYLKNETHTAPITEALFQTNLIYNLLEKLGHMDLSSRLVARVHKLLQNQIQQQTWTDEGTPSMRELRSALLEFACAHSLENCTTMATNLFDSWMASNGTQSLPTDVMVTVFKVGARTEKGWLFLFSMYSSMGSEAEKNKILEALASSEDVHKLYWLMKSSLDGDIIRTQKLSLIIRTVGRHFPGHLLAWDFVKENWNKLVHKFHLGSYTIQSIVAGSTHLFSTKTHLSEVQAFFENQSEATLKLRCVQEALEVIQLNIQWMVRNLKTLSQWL

biological target: Leucyl-cystinyl aminopeptidase (Mus musculus) (UniProt Q8C129); test: IRAP inhibitors, dose response, selectivity assay for ERAP1 modulator project, biochemical, dry powder samples, set 2 (AID 1117285); conditions: purified IRAP, Leu-AMC hydrolysis fluorescence, 1 h; at 3 µM unless noted

Row | SMILES | max activity % (lower = more inhibition)
1 | Cc1ccc(NC(=O)NC2(C(=O)N3CCOCC3)CCCCC2)cc1 | inactive: 26.6% [at 0.1 µM]
2 | COc1ccc(C(=O)O)cc1S(=O)(=O)Nc1cc(C(F)(F)F)ccc1N1CCCCC1 | inconclusive: 6.12%
3 | COC(=O)c1ccc(OC)c(S(=O)(=O)Nc2cc(C(F)(F)F)ccc2N2CCCCC2)c1 | inactive: 21.8% [setting not given]
